Measurements: patent US8492349B2, “Analgesia with minimal tolerance and dependence by a mu opioid receptor agonist that also binds filamin A” (Pain Therapeutics, Inc., priority 2007, dated 2013)

Tested on: MOR-Gs coupling
Assay: Acute morphine-induced MOR Go-to-Gs coupling switch in organotypic striatal slice cultures
Type: cell-based, rat
Conditions: 100 μM

In the case of CN1CC[C@]23c4c5ccc(O)c4O[C@H]2[C@@H](O)C=C[C@H]3[C@H]1C5 [morphine], the “Go-to-Gs coupling switch by MOR, acute exposure” value (5 and 15 minutes of exposure) is reported as “caused a complete Go-to-Gs coupling switch” and the “Go-to-Gs coupling switch by MOR, acute exposure” value (after 60 minutes of exposure) is reported as “no further Gs coupling was detected”.
